Laboratory results published in US20160354437A1.
Results are given in words; binding and its absence hold for the method and conditions named. Binding seen in cells or lysates may run through a third protein. Some binding calls cover weakened binding; strength is not graded here.

Sequences of proteins named here, by UniProt entry; tags and fusion partners are left off.
UniProt P29466: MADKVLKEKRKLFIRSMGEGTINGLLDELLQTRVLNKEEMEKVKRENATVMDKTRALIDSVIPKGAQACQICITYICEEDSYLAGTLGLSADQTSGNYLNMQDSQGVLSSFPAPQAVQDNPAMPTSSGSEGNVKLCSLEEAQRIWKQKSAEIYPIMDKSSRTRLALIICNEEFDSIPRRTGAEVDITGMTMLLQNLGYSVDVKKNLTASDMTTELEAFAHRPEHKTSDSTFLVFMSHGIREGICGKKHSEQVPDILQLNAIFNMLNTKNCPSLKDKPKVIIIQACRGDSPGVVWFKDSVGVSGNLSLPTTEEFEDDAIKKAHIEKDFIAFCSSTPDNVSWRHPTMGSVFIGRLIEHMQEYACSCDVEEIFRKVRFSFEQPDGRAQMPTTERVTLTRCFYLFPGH
UniProt Q9ULZ3: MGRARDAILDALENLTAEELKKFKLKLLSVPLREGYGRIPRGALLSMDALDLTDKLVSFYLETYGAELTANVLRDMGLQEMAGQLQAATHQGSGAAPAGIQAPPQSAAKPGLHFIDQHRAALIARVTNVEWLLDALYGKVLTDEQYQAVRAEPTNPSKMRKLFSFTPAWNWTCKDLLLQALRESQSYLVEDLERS

Target: pro-caspase-1 (human) (UniProt P29466)
Assay: GST-POP1 pull-down from THP-1 lysates; pro-caspase-1 co-purified through ASC (FIG. 18a)

ASC (from UniProt Q9ULZ3 1-195)
binding: binds
